PubChem BioAssay AID504774, Drosophila RNAi Screening Center, 2011

Test: 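Knock-downs that shift viability of MMS-exposed cells relative to untreated ones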 (primary screen)
Cells: Drosophila Kc167 cells
Knock-down reagent: long dsRNA against Drosophila genes, about 0.25 µg dsRNA per well
Time to read-out: about 6 days: 3 days knock-down, then 3 days with or without MMS
Treatment: methyl methanesulphonate 0.004% (w/v) for 3 days after knock-down
Detection: 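Viability in wells given MMS, read as ATP luminescence, normalised by quantiles plate by plate and averaged across replicates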
Direction: mean viability with MMS: higher = more surviving cells after MMS
In all, the deposit lists about 23,000 reagents; this is an unselected part of those with a known target gene and a result. 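Values are quantile-normalised luminescence on an arbitrary scale; higher means more cells surviving MMS.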 Further read-outs or replicates are left out here.

mean viability with MMS, by gene and reagent
CG10062: DRSC05960 3.80e6; DRSC22535 3.77e6
PPO3: DRSC04325 3.60e6
lncRNA:CR30009: DRSC22952 3.61e6
CG31805: DRSC01563 3.49e6
CG34109: DRSC02169 3.69e6; DRSC02224 3.57e6; DRSC02225 3.52e6
CG30281: DRSC04528 3.76e6
Arpc2: DRSC02113 3.44e6
CG15653: DRSC04244 3.34e6
CG31688: DRSC02682 3.65e6
ND-30: DRSC08243 3.44e6
CG14810: DRSC17693 3.43e6; DRSC17961 3.46e6
CG10494: DRSC04072 3.61e6
mtrm: DRSC10322 3.26e6; DRSC23076 3.48e6
CG14718: DRSC14941 3.59e6
pnr: DRSC17027 3.74e6
nom: DRSC16389 3.61e6
Gr10a: DRSC18897 3.41e6; DRSC22792 3.49e6
Lrt: DRSC06045 3.64e6
CG14764: DRSC05072 3.63e6; DRSC06498 3.61e6; DRSC06844 3.74e6
lama: DRSC11361 3.47e6
CG30288: DRSC22005 3.81e6
CG11630: DRSC03696 3.57e6
Amacr: DRSC03198 3.40e6
CG13048: DRSC09929 3.56e6
laf: DRSC12246 3.36e6
CG15745 (retired record): DRSC19711 3.56e6
CG30270: DRSC22890 3.45e6
CG4570: DRSC15602 3.30e6
stmA: DRSC05120 3.59e6; DRSC07593 3.61e6; DRSC22179 3.59e6
ND-B22: DRSC03193 3.75e6
CG33476: DRSC22888 3.38e6
ihog: DRSC03157 3.65e6
CG33144: DRSC06132 3.49e6; DRSC07024 3.44e6
lbk: DRSC07178 3.65e6
Spc25: DRSC14164 3.33e6
dpr7: DRSC17109 3.66e6
CG33109: DRSC16533 3.47e6
Scp2: DRSC13166 3.64e6; DRSC16854 3.54e6
CG4546: DRSC15593 3.47e6
CG7156: DRSC16207 3.58e6
Snap24: DRSC16864 3.46e6
CG11723: DRSC00324 3.38e6
CG15357: DRSC00387 3.54e6
Optix: DRSC05078 3.70e6; DRSC07484 3.58e6; DRSC21963 3.59e6
CG7432: DRSC16243 3.78e6
CG3339: DRSC13821 3.61e6; DRSC15479 3.43e6
Nipped-B: DRSC07815 3.57e6
Deaf1: DRSC11143 3.54e6; DRSC22786 3.28e6
hoka: DRSC08313 3.55e6
Charon: DRSC00679 3.71e6
CtsL1: DRSC05462 3.44e6; DRSC07363 3.58e6

3 of these entries, reformatted.
{"gene": "CG33144", "dsRNA": "DRSC06132", "mean viability with MMS": 3.49e6}
{"gene": "CG33144", "dsRNA": "DRSC07024", "mean viability with MMS": 3.44e6}
{"gene": "lbk", "dsRNA": "DRSC07178", "mean viability with MMS": 3.65e6}
